Data reported in PMC5591878.
Results are given in words; binding and its absence hold for the method and conditions named. In cells and extracts the contact can be indirect. Some entries that bind do so weakly or less than the wild type. For some assays here: Where a sequence is shown, tags or fusion partners need not be part of it.

Chains of the proteins cited; added tags and fusions are not shown.
UniProt P48580: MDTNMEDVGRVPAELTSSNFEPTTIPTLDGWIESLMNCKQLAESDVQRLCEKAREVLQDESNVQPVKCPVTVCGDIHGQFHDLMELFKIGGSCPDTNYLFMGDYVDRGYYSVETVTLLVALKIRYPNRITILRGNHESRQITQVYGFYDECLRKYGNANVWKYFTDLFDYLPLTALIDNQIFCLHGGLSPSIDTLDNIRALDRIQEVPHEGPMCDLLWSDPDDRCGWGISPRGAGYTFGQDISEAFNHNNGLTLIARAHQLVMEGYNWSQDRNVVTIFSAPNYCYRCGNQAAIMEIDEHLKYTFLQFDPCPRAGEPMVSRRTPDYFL

T1: COT1, nuclear Dbf2-related (NDR) Ser/Thr kinase (Neurospora crassa (endogenous in the myc-pph1 strain)) (UniProt P38679)
T1 sequence: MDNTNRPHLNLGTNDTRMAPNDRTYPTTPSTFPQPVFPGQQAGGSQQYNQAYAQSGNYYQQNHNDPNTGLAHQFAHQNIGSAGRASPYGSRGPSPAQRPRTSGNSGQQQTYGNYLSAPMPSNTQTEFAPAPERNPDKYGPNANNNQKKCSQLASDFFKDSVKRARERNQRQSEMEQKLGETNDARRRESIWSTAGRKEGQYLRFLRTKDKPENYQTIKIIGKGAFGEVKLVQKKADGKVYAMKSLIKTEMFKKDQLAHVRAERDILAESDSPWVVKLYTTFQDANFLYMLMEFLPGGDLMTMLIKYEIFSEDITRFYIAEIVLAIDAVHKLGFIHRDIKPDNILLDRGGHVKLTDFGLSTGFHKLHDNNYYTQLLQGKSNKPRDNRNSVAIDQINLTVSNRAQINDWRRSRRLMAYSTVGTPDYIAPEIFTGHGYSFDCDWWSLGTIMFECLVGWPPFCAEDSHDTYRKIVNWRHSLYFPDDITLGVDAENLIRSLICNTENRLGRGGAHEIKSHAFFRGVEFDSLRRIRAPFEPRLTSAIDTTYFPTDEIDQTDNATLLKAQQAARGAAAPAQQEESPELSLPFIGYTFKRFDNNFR


Legend:
[1] = molecular target: T1, COT1, nuclear Dbf2-related (NDR) Ser/Thr kinase (Neurospora crassa (endogenous in the myc-pph1 strain)); test: co-IP; cleared crude N. crassa mycelial extract incubated 2 h at 4°C with anti-MYC or anti-COT1 antibodies, then with A/G PLUS-Agarose overnight at 4°C; the last two washes with 0.5 M NaCl; western blot with anti-COT1, anti-MYC or anti-GFP antibodies
[2] = molecular target: MYC::PPH1, PP2A catalytic subunit PPH1 with MYC tag (Neurospora crassa) (UniProt P48580); test: as above

binding [1] | binding [2] | Molecule
binds |  | MYC::PPH1, PP2A catalytic subunit PPH1 with MYC tag (from UniProt P48580 1-327) (enzyme)
 | binds | COT1, nuclear Dbf2-related (NDR) Ser/Thr kinase (protein, UniProt P38679 1-598) MDNTNRPHLNLGTNDTRMAPNDRTYPTTPSTFPQPVFPGQQAGGSQQYNQAYAQSGNYYQQNHNDPNTGLAHQFAHQNIGSAGRASPYGSRGPSPAQRPRTSGNSGQQQTYGNYLSAPMPSNTQTEFAPAPERNPDKYGPNANNNQKKCSQLASDFFKDSVKRARERNQRQSEMEQKLGETNDARRRESIWSTAGRKEGQYLRFLRTKDKPENYQTIKIIGKGAFGEVKLVQKKADGKVYAMKSLIKTEMFKKDQLAHVRAERDILAESDSPWVVKLYTTFQDANFLYMLMEFLPGGDLMTMLIKYEIFSEDITRFYIAEIVLAIDAVHKLGFIHRDIKPDNILLDRGGHVKLTDFGLSTGFHKLHDNNYYTQLLQGKSNKPRDNRNSVAIDQINLTVSNRAQINDWRRSRRLMAYSTVGTPDYIAPEIFTGHGYSFDCDWWSLGTIMFECLVGWPPFCAEDSHDTYRKIVNWRHSLYFPDDITLGVDAENLIRSLICNTENRLGRGGAHEIKSHAFFRGVEFDSLRRIRAPFEPRLTSAIDTTYFPTDEIDQTDNATLLKAQQAARGAAAPAQQEESPELSLPFIGYTFKRFDNNFR
